Data from PMC8281596.
Results are given in words; binding and its absence hold for the method and conditions named. Binding seen in cells or lysates may run through a third protein. Some results given as binding are weak or reduced against the parent protein; the word gives no strength.

Amino acid sequences for entries named in this document (tags omitted).
UniProt Q91Z83: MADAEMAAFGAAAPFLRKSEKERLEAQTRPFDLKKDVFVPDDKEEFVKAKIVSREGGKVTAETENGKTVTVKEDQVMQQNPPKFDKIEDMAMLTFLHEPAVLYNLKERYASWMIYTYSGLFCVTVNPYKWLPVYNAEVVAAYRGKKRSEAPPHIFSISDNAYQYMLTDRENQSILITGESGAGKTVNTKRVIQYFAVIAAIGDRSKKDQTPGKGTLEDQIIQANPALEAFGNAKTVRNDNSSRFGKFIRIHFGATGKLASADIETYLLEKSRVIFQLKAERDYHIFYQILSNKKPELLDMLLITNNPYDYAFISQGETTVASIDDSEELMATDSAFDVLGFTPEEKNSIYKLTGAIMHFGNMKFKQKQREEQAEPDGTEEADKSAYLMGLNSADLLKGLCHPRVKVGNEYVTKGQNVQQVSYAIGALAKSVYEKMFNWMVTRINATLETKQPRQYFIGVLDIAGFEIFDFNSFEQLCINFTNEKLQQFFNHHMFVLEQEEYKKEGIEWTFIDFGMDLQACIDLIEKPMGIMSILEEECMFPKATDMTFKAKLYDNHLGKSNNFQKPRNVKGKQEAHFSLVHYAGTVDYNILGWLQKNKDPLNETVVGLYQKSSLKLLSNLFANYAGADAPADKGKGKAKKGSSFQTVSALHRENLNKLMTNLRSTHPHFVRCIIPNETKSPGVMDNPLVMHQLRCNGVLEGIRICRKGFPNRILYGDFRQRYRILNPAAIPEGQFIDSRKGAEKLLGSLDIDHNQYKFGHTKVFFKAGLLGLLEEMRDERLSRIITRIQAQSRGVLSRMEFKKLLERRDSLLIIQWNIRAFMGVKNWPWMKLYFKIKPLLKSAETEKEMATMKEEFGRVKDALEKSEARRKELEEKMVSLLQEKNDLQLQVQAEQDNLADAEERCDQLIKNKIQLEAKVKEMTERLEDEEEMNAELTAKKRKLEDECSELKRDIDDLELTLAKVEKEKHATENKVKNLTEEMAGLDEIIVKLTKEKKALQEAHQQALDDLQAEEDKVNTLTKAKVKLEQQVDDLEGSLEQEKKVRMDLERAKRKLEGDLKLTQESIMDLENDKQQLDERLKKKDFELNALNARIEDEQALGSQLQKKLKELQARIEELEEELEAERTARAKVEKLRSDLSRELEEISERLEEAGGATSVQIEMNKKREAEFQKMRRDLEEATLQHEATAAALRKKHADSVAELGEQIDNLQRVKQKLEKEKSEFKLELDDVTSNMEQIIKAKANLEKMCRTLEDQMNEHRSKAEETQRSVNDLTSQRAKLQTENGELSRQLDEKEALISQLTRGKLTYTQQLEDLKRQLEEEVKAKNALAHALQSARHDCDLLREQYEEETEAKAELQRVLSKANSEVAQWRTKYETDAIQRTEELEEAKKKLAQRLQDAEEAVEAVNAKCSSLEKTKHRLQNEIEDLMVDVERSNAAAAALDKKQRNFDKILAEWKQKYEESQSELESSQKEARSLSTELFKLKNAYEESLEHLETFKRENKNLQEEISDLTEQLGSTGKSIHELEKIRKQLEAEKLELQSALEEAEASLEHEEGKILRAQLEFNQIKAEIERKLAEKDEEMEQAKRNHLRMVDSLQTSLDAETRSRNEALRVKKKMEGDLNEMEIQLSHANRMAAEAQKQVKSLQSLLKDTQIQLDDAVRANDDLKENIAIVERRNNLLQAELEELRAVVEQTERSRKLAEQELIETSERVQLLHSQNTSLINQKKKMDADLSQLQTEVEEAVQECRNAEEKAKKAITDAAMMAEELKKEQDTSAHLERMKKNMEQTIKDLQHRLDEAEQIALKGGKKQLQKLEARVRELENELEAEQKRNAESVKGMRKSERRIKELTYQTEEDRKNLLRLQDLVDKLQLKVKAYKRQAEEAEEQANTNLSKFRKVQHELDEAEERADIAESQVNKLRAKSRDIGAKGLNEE

Molecular target: T1, YTHDF2 (mouse (endogenous in primary mouse cardiomyocytes)) (UniProt Q91YT7)
T1 sequence: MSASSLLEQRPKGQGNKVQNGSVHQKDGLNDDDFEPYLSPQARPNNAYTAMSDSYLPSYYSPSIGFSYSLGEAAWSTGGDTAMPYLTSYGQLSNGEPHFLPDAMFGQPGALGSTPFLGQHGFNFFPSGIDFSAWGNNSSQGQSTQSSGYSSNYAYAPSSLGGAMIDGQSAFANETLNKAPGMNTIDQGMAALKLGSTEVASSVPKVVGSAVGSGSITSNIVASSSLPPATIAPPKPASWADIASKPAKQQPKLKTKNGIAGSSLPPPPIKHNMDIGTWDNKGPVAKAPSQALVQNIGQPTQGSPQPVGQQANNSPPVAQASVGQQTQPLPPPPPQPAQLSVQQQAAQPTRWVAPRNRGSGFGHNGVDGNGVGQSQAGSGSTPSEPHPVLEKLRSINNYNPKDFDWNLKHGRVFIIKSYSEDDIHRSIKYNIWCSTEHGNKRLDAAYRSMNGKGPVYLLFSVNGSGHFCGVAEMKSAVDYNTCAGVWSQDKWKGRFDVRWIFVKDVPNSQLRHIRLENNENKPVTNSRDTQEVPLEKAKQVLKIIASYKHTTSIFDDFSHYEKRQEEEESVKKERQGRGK
Assay: co-IP; lysate of primary cardiomyocytes treated with ISO (10 μmol/l) or DMSO for 24 h; immunoprecipitated with anti-YTHDF2 or rabbit IgG, protein A/G-agarose beads; Western blotting with anti-MYH7

## MYH7 (beta-myosin heavy chain) (from UniProt Q91Z83 1-1935)
  binding: binds
